Patent publication US20220235132A1
No constants are given. Whether binding was seen depends on the method and setting. Some results given as binding are weak or reduced against the parent protein; the word gives no strength.

Chains of the proteins cited; added tags and fusions are not shown. Residues count along the entry.
UniProt Q15116, residues 25-167: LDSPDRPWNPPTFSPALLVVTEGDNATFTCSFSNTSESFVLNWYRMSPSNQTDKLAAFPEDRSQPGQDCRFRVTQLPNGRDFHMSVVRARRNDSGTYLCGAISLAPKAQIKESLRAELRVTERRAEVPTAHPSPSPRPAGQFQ

Target: recombinant human PD-1 monomer (human) (UniProt Q15116)
Test: hydrogen-deuterium exchange with recombinant human PD-1 monomer

B1: APE12537 (3.7C6 anti-PD-1 antibody, CHO-S sorted stable pool) (antibody, human IgG1, kappa, V domains shown)
VH: QVQLVQSGSELKKPGASVKVSCKASNYTFTDYSMHWVRQAPGQGLEWMGWINIETYYPTYADQFKGRFAFSLDTSVSTAYLQISSLKAEDTAVYYCARDYYGRFYYAMDYWGQGTTVTVSS
VL: EIVLTQSPATLSLSPGERATLSCTASSSVSSSYFHWYQQKPGQAPRLLIYSTSNLASGIPARFSGSGSGTDFTLTISRLEPEDFAVYYCHQYHRSPLTFGGGTKVEIKR
binding: binds
